Laboratory results taken from article doi:10.1101/2024.02.09.577647.
These are yes or no findings as the source states them, for the method shown. Binding seen in cells or lysates may run through a third protein. Some binding calls cover weakened binding; strength is not graded here.

Sequences of proteins named here, by UniProt entry; tags and fusion partners are left off.
UniProt Q6P6C2: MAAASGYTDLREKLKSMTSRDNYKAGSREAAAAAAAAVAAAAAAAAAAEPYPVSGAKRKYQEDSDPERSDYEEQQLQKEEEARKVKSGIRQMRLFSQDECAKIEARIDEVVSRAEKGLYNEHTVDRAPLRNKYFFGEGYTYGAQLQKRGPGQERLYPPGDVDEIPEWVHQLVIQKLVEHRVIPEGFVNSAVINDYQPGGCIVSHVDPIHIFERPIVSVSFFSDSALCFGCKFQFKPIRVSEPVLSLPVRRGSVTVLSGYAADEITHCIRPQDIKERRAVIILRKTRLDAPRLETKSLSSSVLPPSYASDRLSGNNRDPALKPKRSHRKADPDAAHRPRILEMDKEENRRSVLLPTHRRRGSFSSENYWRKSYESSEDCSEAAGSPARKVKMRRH
UniProt O00571: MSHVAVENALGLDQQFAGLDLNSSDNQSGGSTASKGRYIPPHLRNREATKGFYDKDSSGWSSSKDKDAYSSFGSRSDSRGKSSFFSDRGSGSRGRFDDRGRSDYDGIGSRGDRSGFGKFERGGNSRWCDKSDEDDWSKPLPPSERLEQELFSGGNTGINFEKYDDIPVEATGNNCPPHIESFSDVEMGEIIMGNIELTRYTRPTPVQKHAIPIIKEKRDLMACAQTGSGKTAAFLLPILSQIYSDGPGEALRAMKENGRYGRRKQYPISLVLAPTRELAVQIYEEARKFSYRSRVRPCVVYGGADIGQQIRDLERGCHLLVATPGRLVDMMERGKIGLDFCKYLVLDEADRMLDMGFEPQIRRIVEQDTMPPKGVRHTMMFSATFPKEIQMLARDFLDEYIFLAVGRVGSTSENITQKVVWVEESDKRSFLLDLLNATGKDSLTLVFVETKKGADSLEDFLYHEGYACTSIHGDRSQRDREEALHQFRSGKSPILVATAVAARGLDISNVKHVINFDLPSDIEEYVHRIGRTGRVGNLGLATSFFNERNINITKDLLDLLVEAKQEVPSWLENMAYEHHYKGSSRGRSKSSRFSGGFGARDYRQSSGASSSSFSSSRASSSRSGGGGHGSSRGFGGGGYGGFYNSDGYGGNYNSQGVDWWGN

Target: mEGFP-ALKBH5 (UniProt Q6P6C2)
Test: co-IP

binding: binds
Substance: DDX3 (from UniProt O00571 1-662)
